Assay results: PubChem BioAssay (EPA / NIEHS)
“And” between values parts separate entries of the source, which are not always exact repeats. Identical values can stand only once. This list was built around the results that the source calls inconclusive (neither active nor inactive); the mix of calls is not that of the screen. A potency beside an inconclusive call is a rough fit, not a confirmed value. The source made the active and inactive calls. Rule for the calls: active = hit-call score of the fitted dose curve at least 0.9, where 1 is the maximum; inconclusive = response in the unintended direction; inactive = score below 0.9.

Chains of the proteins cited; added tags and fusions are not shown.
UniProt P04637, whole entry, looked up: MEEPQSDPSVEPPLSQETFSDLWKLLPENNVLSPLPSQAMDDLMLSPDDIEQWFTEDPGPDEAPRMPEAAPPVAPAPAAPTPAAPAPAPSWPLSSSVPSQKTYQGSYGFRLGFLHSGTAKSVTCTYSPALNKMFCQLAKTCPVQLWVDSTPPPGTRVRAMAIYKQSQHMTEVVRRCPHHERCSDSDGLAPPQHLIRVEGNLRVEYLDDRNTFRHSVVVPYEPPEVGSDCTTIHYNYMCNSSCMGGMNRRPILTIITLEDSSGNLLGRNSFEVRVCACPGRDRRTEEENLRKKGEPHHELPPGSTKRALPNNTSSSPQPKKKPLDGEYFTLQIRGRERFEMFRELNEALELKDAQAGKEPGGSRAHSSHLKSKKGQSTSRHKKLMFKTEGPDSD

Target: Cellular tumor antigen p53 (Homo sapiens) (UniProt P04637)
Experiment: TOX21_p53_BLA_p3_ratio: Tox21 HCT-116 p53 Agonism Beta-lactamase Assay, Ratio, Phase 3 (AID 2283596)
Method in brief: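 HCT116 p53-bla cells (4000/well) given compound in DMSO (217-fold dilution) after 5 h, incubated 16 h at 37C. CCF4-AM substrate 2 h at room temperature; 460/530 nm emission ratio, gain fitted against DMSO.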

Row | SMILES | AC50 | outcome
1 | CCCCCCCCCCCCCCCC[N+](C)(C)CC | active: 44.5 µM and active: 30.8 µM | 
2 | O=C1CCCC(=O)O1 | inconclusive: 46.1 µM | 
3 | CC(C)(C)NC(N)=O | inconclusive: 79.9 µM | 
4 | OCC(CO)(CO)COCC(CO)(CO)CO | inconclusive: 86.5 µM | 
5 | O=S(=O)(O)c1ccc2cc(O)c(S(=O)(=O)O)cc2c1 | inconclusive: 84.6 µM | 
6 | Cc1ccc([N+](=O)[O-])cc1S(=O)(=O)O | inconclusive: 46.1 µM | 
7 | CCCCC1CCCCC(=O)O1 (stereo unspecified) |  | inactive
8 | C=C[C@](C)(O)CC[C@@H]1[C@@]2(C)CCCC(C)(C)[C@@H]2CC[C@@]1(C)O | active: 85.2 µM | 
9 | O=C(c1ccc(OCCN2CCCCC2)cc1)c1c(-c2ccc(O)cc2)sc2cc(O)ccc12 | active: 74.5 µM and active: 71.4 µM and active: 26.1 µM | 
10 | O=C1c2c(O)ccc(Nc3ccc(CCO)cc3)c2C(=O)c2c([N+](=O)[O-])ccc(O)c21 | inconclusive: 46.1 µM | 
11 | CCCOC(=O)CCCCC(=O)OCCC |  | inactive
12 | CC(=O)c1cccnc1 |  | inactive
13 | CCCC(=O)c1cc(O)c(O)cc1O |  | inactive
14 | C=CCOCC(O)CCl (stereo unspecified) | inconclusive: 46.1 µM | 
15 | O=P(O)(O)Oc1ccccc1 |  | inactive
16 | C=C(C)C(=O)O[C@H]1C[C@@H]2CC[C@@]1(C)C2(C)C | inconclusive: 46.1 µM | 
17 | CC(C)N1C(=O)c2ccccc2C1=O | inconclusive: 46.1 µM | 
18 | O=C1CC2CC1C1CCCC21 (stereo unspecified) | inconclusive: 79 µM | 
19 | CCOC(=O)CCCCCCCCC(=O)OCC |  | inactive
20 | CNC(=S)N(C)C | inconclusive: 48.2 µM | inactive

Tested on: not listed separately
Experiment: TOX21_p53_BLA_p4_viability: Viability Assessment in the Tox21 HCT-116 p53 Agonism Beta-lactamase Assay, Phase 4 (AID 2283597);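 note: hits lower the luminescence signal meaning cytotoxicity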
Method in brief: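 We seeded HCT116 p53 reporter cells at 4000/well and waited 5 h. We then added compounds in DMSO at a 217-fold dilution and incubated for 16 h. Viability was read as CellTiter-Glo luminescence after 30 min at RT.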

Row | SMILES | outcome | AC50
21 | CO[Si](OC)(OC)c1ccccc1 | inactive | 
22 | CCCCCCCCCCCCCCCC[N+](C)(C)CC |  | active: 73.7 µM and active: 30.9 µM
23 | O=C1CCCC(=O)O1 | inactive | 
24 | CC(C)=CC(=O)O |  | inconclusive: 46.1 µM
25 | CCCCCCOC(=O)CC |  | inconclusive: 46.1 µM
26 | O=C1C=CC(=O)N1c1ccc(Cc2ccc(N3C(=O)C=CC3=O)cc2)cc1 |  | active: 75.2 µM
27 | C=COCC1CCC(COC=C)CC1 (stereo unspecified) |  | inconclusive: 46.1 µM
28 | Cc1ccc([N+](=O)[O-])cc1S(=O)(=O)O |  | inconclusive: 46.1 µM and inconclusive: 45.4 µM
29 | CC(=O)OCC(C)OC(C)=O (stereo unspecified) |  | inconclusive: 46.1 µM
30 | CCCCCCCCCCCCCCCCC |  | inconclusive: 0.0165 µM
31 | CC1=CC(C)C(C=O)CC1 (stereo unspecified) |  | inconclusive: 14.1 µM
32 | O=C(O)CCSCCC(=O)O | inactive | 
33 | CCCCC1CCCCC(=O)O1 (stereo unspecified) | inactive | 
34 | CCCSSCCC |  | inconclusive: 46.1 µM
35 | C=C[C@](C)(O)CC[C@@H]1[C@@]2(C)CCCC(C)(C)[C@@H]2CC[C@@]1(C)O |  | active: 15.8 µM
36 | C=CCOCC(O)CCl (stereo unspecified) |  | inconclusive: 39.3 µM
37 | C=C(C)C(=O)O[C@H]1C[C@@H]2CC[C@@]1(C)C2(C)C |  | inconclusive: 46.1 µM and inconclusive: 45.8 µM
38 | CC(C)N1C(=O)c2ccccc2C1=O |  | inconclusive: 37.3 µM
39 | CCOC(=O)CCCCCCCCC(=O)OCC |  | inconclusive: 46.1 µM
40 | CC(C)(O)CCc1ccccc1 |  | inconclusive: 46.1 µM
41 | CNC(=S)N(C)C |  | inconclusive: 48.2 µM
42 | O=C(C=Cc1ccccc1)OCc1ccccc1 | inactive | 
43 | CCOC(=O)CCC(C)=O |  | inconclusive: 0.18 µM

Target: Cellular tumor antigen p53 (Homo sapiens) (UniProt P04637)
Experiment: TOX21_p53_BLA_p5_ratio: Tox21 HCT-116 p53 Agonism Beta-lactamase Assay, Ratio, Phase 5 (AID 2283599)
Method in brief: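 HCT-116 p53-bla cells (4000/well) plated 5 h, dosed with compound (217-fold DMSO dilution) for 16 h at 37 C; CCF4-AM substrate 2 h at room temperature. Activity is the 460/530 nm emission ratio (405 nm excitation), fitted in gain-of-signal direction versus DMSO.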

Row | SMILES | AC50 | outcome
44 | CO[Si](OC)(OC)c1ccccc1 | inconclusive: 46.1 µM | 
45 | CCCCCCCCCCCCCCCC[N+](C)(C)CC | active: 71.2 µM and active: 24.6 µM | 
46 | CC(C)=CC(=O)O |  | inactive
47 | CC(C)(C)NC(N)=O |  | inactive
48 | O=C1C=CC(=O)N1c1ccc(Cc2ccc(N3C(=O)C=CC3=O)cc2)cc1 | active: 74.4 µM | 
49 | Cc1ccc([N+](=O)[O-])cc1S(=O)(=O)O | inconclusive: 46.1 µM and inconclusive: 45.4 µM | 
50 | CC(=O)OCC(C)OC(C)=O (stereo unspecified) |  | inactive
51 | C=C[C@](C)(O)CC[C@@H]1[C@@]2(C)CCCC(C)(C)[C@@H]2CC[C@@]1(C)O | active: 87.1 µM | 
52 | O=C(c1ccc(OCCN2CCCCC2)cc1)c1c(-c2ccc(O)cc2)sc2cc(O)ccc12 | active: 72.8 µM and active: 81.5 µM and active: 36.2 µM | 
53 | C[C@]12CC[C@@H]3c4ccc(O)cc4C[C@@H](CCCCCCCCCS(=O)CCCC(F)(F)C(F)(F)F)[C@H]3[C@@H]1CC[C@@H]2O (stereo partly specified) | inconclusive: 46.1 µM | inactive
54 | CCCOC(=O)CCCCC(=O)OCCC | inconclusive: 46.1 µM | 
55 | CCC(C)C(=O)OCCc1ccccc1 (stereo unspecified) |  | inactive
56 | CC(=O)c1cccnc1 |  | inactive
57 | CCCCCC=O | inconclusive: 46.1 µM | 
58 | C=C(C)C(=O)O[C@H]1C[C@@H]2CC[C@@]1(C)C2(C)C | inconclusive: 46.1 µM | inactive
